Experimental data taken from publication PMC7617541.
No constants are given. Whether binding was seen depends on the method and setting. In cells and extracts the contact can be indirect. Some entries that bind do so weakly or less than the wild type. Tags and fused reporters may be left off the sequences shown.

The chains behind the UniProt entries cited, without tags or fusion partners.
UniProt P11142: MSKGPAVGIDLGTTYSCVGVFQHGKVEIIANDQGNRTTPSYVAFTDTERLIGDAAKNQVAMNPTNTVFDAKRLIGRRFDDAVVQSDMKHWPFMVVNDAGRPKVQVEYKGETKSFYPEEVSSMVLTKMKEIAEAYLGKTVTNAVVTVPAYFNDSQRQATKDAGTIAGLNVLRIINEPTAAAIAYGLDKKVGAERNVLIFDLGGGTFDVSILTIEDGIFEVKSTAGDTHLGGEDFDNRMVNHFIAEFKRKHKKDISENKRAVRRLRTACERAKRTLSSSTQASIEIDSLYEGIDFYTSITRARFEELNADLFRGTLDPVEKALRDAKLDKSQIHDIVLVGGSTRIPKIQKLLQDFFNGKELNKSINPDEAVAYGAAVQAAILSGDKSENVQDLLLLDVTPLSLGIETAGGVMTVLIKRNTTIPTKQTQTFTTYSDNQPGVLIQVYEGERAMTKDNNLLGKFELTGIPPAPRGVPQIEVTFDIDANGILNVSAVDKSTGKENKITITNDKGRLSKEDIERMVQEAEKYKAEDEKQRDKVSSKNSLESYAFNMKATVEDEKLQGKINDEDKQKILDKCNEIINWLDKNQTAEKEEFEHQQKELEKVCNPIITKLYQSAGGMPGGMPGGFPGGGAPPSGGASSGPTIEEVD

Target: T1, ST13-1xFLAG (recombinant wild-type human St13) (human) (UniProt P50502)
T1 sequence: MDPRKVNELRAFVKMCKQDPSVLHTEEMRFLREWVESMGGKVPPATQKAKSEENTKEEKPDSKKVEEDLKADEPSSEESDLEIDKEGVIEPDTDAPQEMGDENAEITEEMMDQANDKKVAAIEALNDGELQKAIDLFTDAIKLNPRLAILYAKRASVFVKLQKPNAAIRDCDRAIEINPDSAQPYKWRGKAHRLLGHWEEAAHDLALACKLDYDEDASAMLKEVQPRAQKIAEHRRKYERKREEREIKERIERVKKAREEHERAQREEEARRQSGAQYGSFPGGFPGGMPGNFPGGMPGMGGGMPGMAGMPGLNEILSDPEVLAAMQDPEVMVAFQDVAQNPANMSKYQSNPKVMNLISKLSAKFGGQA
Assay: co-IP; FLAG-tagged St13 variants purified from lysates of transfected ∆ST13 HEK293 cells on FLAG-M2 resin (physiological or high salt), eluted with FLAG peptide, SDS-PAGE

Substance	binding
Hsc70 (endogenous, HEK293 cells) (from UniProt P11142 1-646)	binds
Stip1 (endogenous, HEK293 cells) (from UniProt P31948 1-543)	binds
